Data: patent publication US20160009817A1 (Bayer, published 2016)
Results are given in words; binding and its absence hold for the method and conditions named. Some entries that bind do so weakly or less than the wild type.

By UniProt entry, the sequences of proteins in these tests, tags left out. Residues count along the entry.
UniProt P10646, residues 29-282: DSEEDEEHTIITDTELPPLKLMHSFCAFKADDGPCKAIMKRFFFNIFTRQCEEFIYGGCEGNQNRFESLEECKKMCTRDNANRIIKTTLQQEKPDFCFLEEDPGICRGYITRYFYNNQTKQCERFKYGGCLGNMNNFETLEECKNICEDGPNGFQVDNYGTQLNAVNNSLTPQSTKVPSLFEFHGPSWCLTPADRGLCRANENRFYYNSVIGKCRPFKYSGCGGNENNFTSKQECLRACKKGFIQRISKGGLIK

B1: Ter119scFv-gA200 (bispecific antibody, human IgG2, lambda)
heavy: QVKLQESGGGLVQPGGSLKLSCVASGFTFRDHWMNWVRQAPGKTMEWIGDIRPDGSDTNYAPSVRNRFTISRDNARSILYLQMSNMRSDYTATYYCVRDSPTRAGLMDAWGQGASVTVLTGGGGSGGGGSGGGGSDIQMIQSPSVLSASVGDRVTLNCKASQNINKYLNWYQQKLGEAPKVLIYNTNNLQTGIPSRFSGSGSGTDFTLTISSLQPEDFATYFCFQHYTWPTFGGGTKLELKEGRTATSGGGLVQPGGSLRLSCAASGFTFSSYGMDWVRQAPGKGLEWVSSIRGSRGSTYYADSVKGRFTISRDNSKNTLYLQMNSLRAEDTAVYYCARLYRYWFDYWGQGTLVTVSSASTKGPSVFPLAPCSRSTSESTAALGCLVKDYFPEPVTVSWNSGALTSGVHTFPAVLQSSGLYSLSSVVTVPSSNFGTQTYTCNVDHKPSNTKVDKTVERKCCVECPPCPAPPVAGPSVFLFPPKPKDTLMISRTPEVTCVVVDVSHEDPEVQFNWYVDGVEVHNAKTKPREEQFNSTFRVVSVLTVVHQDWLNGKEYKCKVSNKGLPAPIEKTISKTKGQPREPQVYTLPPSREEMTKNQVSLTCLVKGFYPSDIAVEWESNGQPENNYKTTPPMLDSDGSFFLYSKLTVDKSRWQQGNVFSCSVMHEALHNHYTQKSLSLSPG
light: SYELTQPPSVSVSPGQTARITCSGDNLPKYYAHWYQQKPGQAPVVVIFYDVNRPSGIPERFSGSNSGNTATLTISGTQAMDEADYYCQAWWSSTPVFGGGTKLTVLGQPKAAPSVTLFPPSSEELQANKATLVCLISDFYPGAVTVAWKADSSPVKAGVETTTPSKQSNNKYAASSYLSLTPEQWKSHRSYSCQVTHEGSTVEKTVAPTECS
notes: scFv against RBC fused on the N-terminus of the heavy chain of anti-TFPI IgG gA200; made in CHO cells; also called Ter119sc-gA200; T119sc-gA200
B2: 3E10scFv-gA200 (bispecific antibody, human IgG2, lambda)
heavy: QVQLVESGGTLVQPGGSLRLSCAASGFSFTDAWMSWVRQAPGKELEWVSSISGSGGSTYYAGSVKGRFTISRDNSKNTLYLQMNSLRAEDTAVYYCARVLSLTDYYWYGMDVWGQGTLVTVGGGGSGGGGSGGGGSNFMLTQPHSVSASPGKTVTISCTRSSGSVASYYVQWYQQRPGSSPTTVIYEDNHRPSGVPDRFSGSIDTSSNSASLTISGLKTEDEADYYCQSYDSNNLVVFGGGTKLTVLGEGRTATSGGGLVQPGGSLRLSCAASGFTFSSYGMDWVRQAPGKGLEWVSSIRGSRGSTYYADSVKGRFTISRDNSKNTLYLQMNSLRAEDTAVYYCARLYRYWFDYWGQGTLVTVSSASTKGPSVFPLAPCSRSTSESTAALGCLVKDYFPEPVTVSWNSGALTSGVHTFPAVLQSSGLYSLSSVVTVPSSNFGTQTYTCNVDHKPSNTKVDKTVERKCCVECPPCPAPPVAGPSVFLFPPKPKDTLMISRTPEVTCVVVDVSHEDPEVQFNWYVDGVEVHNAKTKPREEQFNSTFRVVSVLTVVHQDWLNGKEYKCKVSNKGLPAPIEKTISKTKGQPREPQVYTLPPSREEMTKNQVSLTCLVKGFYPSDIAVEWESNGQPENNYKTTPPMLDSDGSFFLYSKLTVDKSRWQQGNVFSCSVMHEALHNHYTQKSLSLSPG
light: B1 light
notes: scFv against TF fused on the N-terminus of the heavy chain of anti-TFPI IgG gA200; made in CHO cells; also called 3E10sc-gA200

Experiments:
[1] = target: human tissue factor pathway inhibitor (TFPI) (human) (UniProt P10646); assay: SPR (Biacore), human TFPI immobilised, 10 ug/mL antibody
[2] = target: human tissue factor pathway inhibitor (TFPI) (human) (UniProt P10646); assay: SPR (Biacore), human TFPI immobilised on a CM4 or CM5 chip, 10 µg/mL antibody without HSA, percentage binding

Row | Binder | binding [1] | binding [2]
1 | B1 | binds | binds
2 | B2 | – | binds
